The results in this text go back to the supplement of paper PMC10735217.

Molecules are shown by their SMILES. The list shows a part of the results. This data set is noisy: repeats of one test often differ as much as different tests do.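 In a drug-repurposing library screen, luminescence reads luciferase driven by eight TEAD-binding elements, stably integrated into human kidney-derived cells. Compounds scoring over five robust Z scores above the plate mean are called hits.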

For the experiment, the system named is HEK293A TEAD-LUC reporter. As to the kind of experiment: TEAD-luciferase reporter activity (YAP activation), robust Z score vs plate; higher = stronger YAP/TEAD activation. As to conditions: 24 h. In general terms: In a reporter assay the amount or activity of a reporter protein is the signal.

In the case of `C=CC(=O)N[C@H]1CCOC[C@H]1Nc1ncc2cc(-c3c(Cl)c(OC)cc(OC)c3Cl)ccc2n1`, the TEAD-luciferase reporter activity reads like this: (compound concentration: 200 nM) inactive: -0.827; (compound concentration: 2 uM) inactive: -2.17; (compound concentration: 10 uM) inactive: -0.714.
Consider `O=C(O)c1ccc(OCCCOc2ccc(C(=O)O)cc2)cc1` [drug delivery system, MIT], for which the TEAD-luciferase reporter activity (compound concentration: 200 nM) is inactive: 0.632, the TEAD-luciferase reporter activity (compound concentration: 2 uM) was inactive: -1.02 and the TEAD-luciferase reporter activity (compound concentration: 10 uM) was inactive: 0.406.
In the same order, the values of `CO[C@H]1[C@H](O)[C@H](O)[C@H](OC2[C@H](C(=O)O)O[C@@H](C)[C@@H](O)[C@H]2O)O[C@@H]1C(=O)O` (stereo partly drawn) [Alginic Acid] are inactive: -0.238, inactive: -0.438 and inactive: -0.412.
Taken in the same sequence, the figures for `Cc1c(OC(=O)c2ccc(N)cc2)c(O)c2ccccc2c1O` [Aminaftone] were inactive: 0.171, inactive: -0.773 and inactive: -0.579.
Taken in the same sequence, the figures for `CN(C)C(=O)COC1c2ccccc2CCc2ccccc21` were inactive: 0.454, inactive: -0.0786 and inactive: 2.88.
Take `[O]=[Bi]` [Bismuth(III) oxy iodide]: the TEAD-luciferase reporter activity runs as follows: (compound concentration: 200 nM) inactive: -0.215; (compound concentration: 10 uM) inactive: 0.224.
As to `C[n+]1c2cc(N)ccc2cc2ccc(N)cc21.Nc1ccc2cc3ccc(N)cc3nc2c1` [Acriflavine], the TEAD-luciferase reporter activity (compound concentration: 200 nM) is inactive: 0.518, the TEAD-luciferase reporter activity (compound concentration: 2 uM) is active: 10.7 and the TEAD-luciferase reporter activity (compound concentration: 10 uM) was inactive: 0.145.
`NC(=O)NNc1ccccc1`: the TEAD-luciferase reporter activity runs as follows: (compound concentration: 200 nM) active: 5.65; (compound concentration: 2 uM) inactive: 0.966; (compound concentration: 10 uM) inactive: -0.534.
In the same order, the values of `Cc1cccc(/C=N/Nc2cc(N3CCOCC3)n3nc(-c4ccncc4)cc3n2)c1` are inactive: 0.201, inactive: -0.602 and inactive: 0.456.
Taken in the same sequence, the figures for `CC(C)(O)CNc1nc(Nc2ccnc(C(F)(F)F)c2)nc(-c2cccc(C(F)(F)F)n2)n1` [Enasidenib] were inactive: -1.33, inactive: -0.955 and inactive: -1.36.
Taken in the same sequence, the figures for `Cc1cccc(C)c1NC(=O)C1CCCN(C)C1` (stereo not drawn) were inactive: 1.74, inactive: 0.788 and inactive: -0.244.
As for `O=C1NC2(CCN(CC3CCCC3)CC2)Oc2ccccc21`, the TEAD-luciferase reporter activity (compound concentration: 200 nM) is inactive: -0.728 and the TEAD-luciferase reporter activity (compound concentration: 10 uM) was inactive: 0.45.
As to `COc1cccc2c1C(=O)c1c(O)c3c(c(O)c1C2=O)C[C@@](O)(C(=O)CO)C[C@@H]3OC1CC(N)C(OC2CCCCO2)C(C)O1` (stereo partly drawn) [pirarubicin], the TEAD-luciferase reporter activity reads like this: (compound concentration: 200 nM) inactive: -0.264; (compound concentration: 2 uM) inactive: -3.03; (compound concentration: 10 uM) inactive: 3.16.
As for `Cc1cnc(C(=O)c2ncnc3[nH]ccc23)c(NS(=O)(=O)c2ccc(Cl)c(C(F)(F)F)c2)c1`, the TEAD-luciferase reporter activity is inactive: -1.5 (compound concentration: 200 nM), inactive: -1.43 (compound concentration: 2 uM) and inactive: 0.481 (compound concentration: 10 uM).
Regarding `CC(C)(O)c1ccc2c(c1)C(=CCCN1CCC(O)(c3ccc(Cl)cc3)C(C)(C)C1)c1cccnc1CO2` (stereo not drawn) [analog of MLN-3897], for the setting “compound concentration: 2 uM”, the TEAD-luciferase reporter activity is inactive: 0.184.
For the compound `CC(C)(O)c1ccc2c(c1)C(=CCCN1CCC(O)(c3ccc(Cl)cc3)C(C)(C)C1)c1cccnc1CO2` (stereo not drawn), the TEAD-luciferase reporter activity reads like this: (compound concentration: 200 nM) inactive: -0.48; (compound concentration: 10 uM) inactive: -0.599.
